Laboratory results: PubChem BioAssay AID1259308 (NCATS, 2017)
Screen: 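Knock-downs that increase output of a recombinant reporter protein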 (primary screen). Cells: human HEK293 embryonic kidney cells stably expressing firefly luciferase (HEK-CMV-Luc2-Hygro). Reagents: single siRNA against human genes, 0.8 pmol siRNA per well. Timing: 72 h. Measurement: 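Reporter luminescence and viable-cell signal on separate replicate plates, given as percent of non-targeting control and median/MAD z-scores, plus per-cell luciferase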. Scale: total luciferase, z-score and total luciferase, % of control: higher = more reporter protein produced; luciferase per cell, z-score: higher = more reporter output per viable cell; viable cells, % of control: higher = more viable cells. Call rule: 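An siRNA counts as active if its total luciferase robust z-score exceeds 3; genes with two or more such siRNAs out of three were retested with fresh siRNAs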. Calls: active = raised luciferase; inactive = no rise.
In all, the deposit lists about 59,000 reagents; this is an unselected part. In the full data, about 1,510 (2.6%) were called active. 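Calls use total luciferase alone and ignore viability, so some active siRNAs may act by altering cell number.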 The numbers tell different reagents against one gene apart.

gene | siRNA no. | total luciferase, z-score | total luciferase, % of control | luciferase per cell, z-score | viable cells, % of control | Call
GALR2 (galanin receptor 2) | 1 | -0.372 | 74.5 | -1.59 | 127 | inactive
GALR2 (galanin receptor 2) | 2 | 0.807 | 97.9 | 1.06 | 82.7 | inactive
GALR2 (galanin receptor 2) | 3 | -0.953 | 62.9 | -0.796 | 86.7 | inactive
UBE2S (ubiquitin conjugating enzyme E2 S) | 1 | -1.2 | 57.9 | -1.34 | 92.2 | inactive
UBE2S (ubiquitin conjugating enzyme E2 S) | 2 | -0.118 | 79.5 | -0.588 | 104 | inactive
UBE2S (ubiquitin conjugating enzyme E2 S) | 3 | -0.849 | 65 | -0.705 | 87.5 | inactive
ALG1L6P (ALG1 like 6, pseudogene) | 1 | -1.23 | 57.4 | -1.02 | 83.9 | inactive
ALG1L6P (ALG1 like 6, pseudogene) | 2 | -1.49 | 52.3 | -1.06 | 77.3 | inactive
ALG1L6P (ALG1 like 6, pseudogene) | 3 | -1.5 | 52 | -0.32 | 63.3 | inactive
ALDOC (aldolase, fructose-bisphosphate C) | 1 | -0.835 | 65.3 | -0.558 | 84.5 | inactive
ALDOC (aldolase, fructose-bisphosphate C) | 2 | 0.85 | 98.8 | 0.268 | 103 | inactive
ALDOC (aldolase, fructose-bisphosphate C) | 3 | 0.793 | 97.7 | 0.61 | 92.9 | inactive
SIL1 (SIL1 nucleotide exchange factor) | 1 | 0.545 | 92.7 | 0.623 | 87.9 | inactive
SIL1 (SIL1 nucleotide exchange factor) | 2 | -0.255 | 76.8 | -0.234 | 91.3 | inactive
SIL1 (SIL1 nucleotide exchange factor) | 3 | 0.574 | 93.3 | 0.831 | 83.8 | inactive
C20orf141 (chromosome 20 open reading frame 141) | 1 | -0.883 | 64.3 | -0.939 | 92 | inactive
C20orf141 (chromosome 20 open reading frame 141) | 2 | -0.132 | 79.3 | 0.0817 | 86.7 | inactive
C20orf141 (chromosome 20 open reading frame 141) | 3 | -0.885 | 64.3 | 0.339 | 65.7 | inactive
LINC02743 (long independently transcribed non-coding RNA 2743) | 1 | -1.38 | 54.5 | -1.12 | 81.9 | inactive
LINC02743 (long independently transcribed non-coding RNA 2743) | 2 | -0.335 | 75.2 | -0.23 | 89.3 | inactive
LINC02743 (long independently transcribed non-coding RNA 2743) | 3 | 0.0536 | 83 | 0.0526 | 91.4 | inactive
ABLIM1 (actin binding LIM protein 1) | 1 | -0.0711 | 80.5 | -0.602 | 105 | inactive
ABLIM1 (actin binding LIM protein 1) | 2 | 1.74 | 117 | 1.52 | 87.4 | inactive
ABLIM1 (actin binding LIM protein 1) | 3 | 3.47 | 151 | 3.18 | 72.9 | active
